Test results from the supplement of paper PMC4683952.
The other results are listed elsewhere or left out. Cut-off read from the data, not from the text of the source: active = 2 or more and inactive = the rest. Single values are uncertain here, since repeats match poorly.

test system: Lgr5 (MarsCy1-Lgr5-EGFP, U2OS); experiment: cell-surface Lgr5 expression (SCi1 fluorescence, background-subtracted) relative to WT DMSO (fold of DMSO control); higher = more Lgr5 at the plasma membrane; conditions: U2OS MarsCy1-Lgr5-EGFP stable; treatment time: overnight; library: ActiProbe-5K (TimTec); 25 µM

SMILES	cell-surface Lgr5 expression
CCc1n[nH]c2c1C1(CCC3(CC1)OCCO3)C(C#N)=C(N)O2	inactive: 1.12
CS(=O)(=O)c1c(Cl)cc(Cl)cc1Cl	inactive: 1.25
CN1CCN(c2nc3ccccc3nc2N2CCN(C)CC2)CC1	inactive: 1.34
CN(CCOc1ccccc1)S(=O)(=O)c1ccc2c(c1)oc1ccccc12	inactive: 1.07
O=c1[nH]n2cc(-c3n[nH]cc3[N+](=O)[O-])cnc2c1[N+](=O)[O-]	inactive: 1.19
O=S(=O)(NCCn1cccc1)c1ccc2ccccc2c1	inactive: 1.18
N=C1NC(c2ccccc2)=CC(c2ccccc2)S1 (configuration not stated)	inactive: 1.01
Oc1ccc(/N=N\c2ccc(O)cc2)cc1	inactive: 0.664
COc1cccc(-c2nnc3n2N=C(c2cc(OC)ccc2OC)CS3)c1	inactive: 1.19
Cc1c(C)c(/C=N\O)c(C)c(C)c1/C=N\O	inactive: 1.09
C=CCn1cnc2ccc(Br)cc2c1=O	inactive: 1.19
OC1=C2C(=Nc3ccccc3SC2c2ccc(Br)cc2)c2ccccc21 (configuration not stated)	inactive: 0.921
Cc1ccc(/C=N/NC(=O)c2ccco2)o1	inactive: 1.21
Nc1ccc(S(=O)(=O)Nc2ncccn2)cc1	inactive: 1.41
O=C(O)C1CCCN1S(=O)(=O)c1ccc(Cl)s1 (configuration not stated)	inactive: 1.29
O=S(=O)(Nc1ccc(Br)cc1F)c1ccc(F)cc1	inactive: 1.07
Br.NC1=Nc2cccc3cccc(c23)N1.O	inactive: 0.737
CCNCC1Cc2ccccc2O1 (configuration not stated)	inactive: 1.37
CC(C)N/C(=N\C#N)SCc1ccc(Br)cc1	inactive: 0.892
O=S(=O)(Nc1cccnc1)c1ccc(F)cc1	inactive: 1.04
CC(=O)c1ccc(/C=C\C(=O)O)o1	inactive: 1.15
Nc1nonc1/C(=N\O)N1CCN(c2ccc([N+](=O)[O-])cc2)CC1	inactive: 0.892

SMILES	cell-surface Lgr5 expression
Cc1nn(CCCNS(=O)(=O)c2c(C)noc2C)c(C)c1Br	inactive: 1.26
CN1Cc2cc(S(=O)(=O)NC3CC3)ccc2N(C)C1=O	inactive: 1.53
CC1(C)CC(N2C(=O)OC(C)(C)C2(C)O)CC(C)(C)N1 (configuration not stated)	inactive: 1.09
CC(C)c1cc(=O)n2nc(N)[nH]c2n1	inactive: 1.26
CC(C)N1CCC2(CC1)C(C#N)=C(N)NC(S)=C2C#N	inactive: 1.02
COCc1[nH]nc2c1C1(CCSCC1)C(C#N)=C(N)O2	inactive: 1.17
N#CCn1c2c(c(=O)n3ncnc13)CCCC2	inactive: 0.995
CC(C)COC(=O)CSc1n[nH]c(=O)[nH]c1=O	inactive: 1.27
COc1cc2c(cc1OC)-c1cc3ccc(OC)c(OC)c3c[n+]1CC2.O.[Cl-]	inactive: 0.874
Fc1ccccc1-c1nnc2n1N=C(c1ccc3c(c1)OCO3)CS2	inactive: 1.01
C1(=C2\OC(=O)c3c2cccc3)/c2c(cccc2)c2c1cccc2	inactive: 1.18
O=[N+]([O-])c1cccnc1N/N=C/c1cc(Br)c(Br)o1	inactive: 1.29
COc1cc(C(c2cc3c(cc2O)OCO3)N2CCOCC2)cc(OC)c1OC (configuration not stated)	inactive: 1.5
O=S(=O)(NCc1ccco1)c1cc(Cl)ccc1Cl	inactive: 1.33
Cc1cc(N)nn1Cn1cc(Cl)cn1	inactive: 1.13
COc1cc(/C=N/NC(N)=S)cc(OC)c1	inactive: 1.22
C1=CCC(CNCCCn2ccnc2)CC1 (configuration not stated)	inactive: 1.41
O=c1[nH]c(=S)[nH]c2c1CCC2	inactive: 0.992
Clc1ccc(-c2csc3c4ncnc-4ncn23)cc1	inactive: 0.826
COc1c2c(c(CN3C(=O)C4CC=CCC4C3=O)c(OC)c1OC)C(=O)OC2 (configuration not stated)	inactive: 1.24
COC(=O)c1ccn(Cn2nnc(CCn3cc(Cl)cn3)n2)n1	inactive: 0.999
Cc1nn(CC(C)C(=O)NC2=C(C#N)CCC2)c(C)c1Br (configuration not stated)	inactive: 1.06

SMILES	cell-surface Lgr5 expression
CSc1ncc(C(=O)O)c(N)n1	inactive: 1.26
NS(=O)(=O)c1ccc(-c2ccc(/C=N/C3CCS(=O)(=O)C3)o2)cc1 (configuration not stated)	inactive: 1.2
CS(=O)(=O)O.Cn1c(Cl)c(CN)c2ccccc21	inactive: 1.2
CN(C)CCCNS(=O)(=O)c1cc(Cl)ccc1Cl	inactive: 1
N=C(N)SCc1ccc(Cl)cc1	inactive: 0.913
O=S(=O)(Nc1cccc2ccccc12)N1CCCC1	inactive: 1.04
CCCCc1[nH]nc2c1C1(CCOC1C)C(C#N)=C(N)O2 (configuration not stated)	inactive: 0.802
CC(=O)OC1CCC2(C)C(=CCC3C2CCC2(C)C(/C(C)=N\NC(N)=O)CCC32)C1 (configuration not stated)	inactive: 1.35
S=C1NC2CCCCC2N1 (configuration not stated)	inactive: 1.26
CC(C1CCC(=N\NC(=O)CCCC(N\N=C2\CCC(C(C)(C)C)CC2)=O)/CC1)(C)C (configuration not stated)	inactive: 1.3
c1ccc(-c2cccc(-c3ccccn3)n2)nc1	inactive: 0.366
O=c1[nH]nc(Br)c(=S)[nH]1	inactive: 1.2
O=C(C(=O)N1CCC[C@H]1CO)N1CCC[C@H]1CO	inactive: 1.11
NC(=S)N1N=C(c2ccccc2)CC1c1ccccc1 (configuration not stated)	inactive: 1.2
O=C1NC2CC(O)(N1)C1OCC2O1 (configuration not stated)	inactive: 1.22
c1ccc(CC2COC(C3=N[C@@H](Cc4ccccc4)CO3)=N2)cc1 (some centres not stated)	inactive: 1.11
CC1S/C(=N/N=C\c2ccc(O)cc2)N=C1O (configuration not stated)	inactive: 1.59
N#Cc1c(C(F)(F)F)cc(C2CC2)nc1SCc1ccccc1	inactive: 1.2
c1ccc2c3c(cc(N4CCOCC4)c2c1)OC1(N2CCCCC2)CCCCC1O3 (configuration not stated)	inactive: 1.31
COc1ccc(C(=S)NN)cc1	inactive: 1
O=C1CCCC(O)=C1C1C2=C(CCCC2=O)Oc2ccccc21 (configuration not stated)	inactive: 0.898
c1ccc2c(c1)c1c3n2CCNC3CCC1 (configuration not stated)	inactive: 1.44

SMILES	cell-surface Lgr5 expression
C=CC[n+]1ccc2ccccc2c1.[Br-]	inactive: 1.28
Nc1c(C(=O)[O-])sc2nc3c(cc12)CCCC3	inactive: 1.11
Cc1ccc(C2C(C#N)=C(N)SC(N)=C2C#N)o1	inactive: 1.42
COc1cccc(=O)c2c(C)oc(C)c12	inactive: 1.19
O=C1CCCC2=C1C1(OC3C=CC=CN23)C(=O)c2ccccc2C1=O (configuration not stated)	inactive: 1.39
Clc1ccc(Cl)c(/N=C\c2cc3ccccc3nc2Cl)c1	inactive: 1.34
O=S(=O)(c1ccc(-n2ccnc2)cc1)N1CCCC1	inactive: 0.947
Clc1ccc(-n2cccc2)nc1	inactive: 0.995
Cc1nn(C)cc1NC(=S)N1CCSCC1	inactive: 1.26
Cc1cccn2c(=O)c(/C=C3/SC(=S)N(C(C)C)C3=O)c(N3CCCC3)nc12	inactive: 0.937
Nc1ccc2c(c1)S(=O)(=O)c1cc(N)ccc1C2	inactive: 1.08
CCOC(=O)c1[nH]c(COC(C)=O)c(CC)c1C	inactive: 1.39
Nc1nc(O)c2nc([C@H](O)[C@H](O)CO)cnc2n1	inactive: 1.4
O=S(=O)(Nc1ccc(Cl)cn1)c1ccc(F)cc1	inactive: 0.994
N#CCCN(/N=C\c1cccc2ccccc12)C1=NS(=O)(=O)c2ccccc21	inactive: 1.67
Cn1c(-c2ccco2)nn(CN2CCC(C(N)=O)CC2)c1=S	inactive: 1.21
CN(C)CCCNC(=O)C12CC3CC(CC(C3)C1)C2	inactive: 1.58
Cc1ncc(CO)c(CO)c1O.Cl	inactive: 1.23
CCOC(=O)ON1C(=O)c2ccccc2N2COc3ccccc3C12 (configuration not stated)	inactive: 1.11
CN1CCC2(CC1)C(C#N)=C(N)C(C#N)(C#N)C1=C2CN(C)CC1	inactive: 1.13
O=C(NCCCCCCNC(=O)C1CCCCC1)C1CCCCC1	inactive: 0.992
CSc1sc2c(O)nc(=O)[nH]c2c1C#N	inactive: 1.24

SMILES	cell-surface Lgr5 expression
CCn1cc(C(=O)O)c(=O)c2cnc(N3CCN(C(=S)NC)CC3)nc21	inactive: 1.05
CCc1sc(/C=N\NC(N)=O)cc1Br	inactive: 1.02
CN1C(=S)NC(C)(C)CC1(C)O (configuration not stated)	inactive: 1.18
O=C1CCCC(O)=C1C1(O)C(=O)c2ccccc2C1=O	inactive: 1.27
O=S1(=O)c2cccc3cccc(c23)N1Cc1cccc(F)c1	inactive: 0.942
COc1cc2c(cc1[N+](=O)[O-])OCO2	inactive: 1.2
CN(C)c1nc(N)nc(CN2C(=O)C3CC=CCC3C2=O)n1 (configuration not stated)	inactive: 1.11
COc1ccc(Nc2nc(NN)nc(OCC(F)(F)F)n2)cc1	inactive: 1.39
O=C(O)C1=CC=C(Cl)[C@H](O)[C@@H]1O	inactive: 1.31
CCOC(=O)N1CCC2(CC1)C(C#N)=C(N)OC1=C2C(=O)CC(C)C1 (configuration not stated)	inactive: 1.3
O=C(N/N=C/c1ccc(Br)s1)c1ccco1	inactive: 1.52
CC(=O)Nc1nonc1NC(=O)CSc1nc(N)n[nH]1	inactive: 1.22
Nc1ncnc(N2CCCCC2)c1[N+](=O)[O-]	inactive: 0.56
O=C(Nc1nncs1)c1cccs1	inactive: 1.23
Nc1nnnn1/N=C1/C(=O)Nc2ccc(Br)cc21	inactive: 1.45
Cc1occc1C(=O)N/N=C/c1ccco1	inactive: 0.962
COc1cc(OC)cc(C2SC(N)=C(C#N)C(N)=C2C#N)c1 (configuration not stated)	inactive: 1.11
O=[N+]([O-])c1cc([N+](=O)[O-])c2cc(-c3ccco3)[nH]c2c1	inactive: 1.43
COc1ccc(C2C=C(c3ccc(F)cc3)NC(=N)S2)cc1 (configuration not stated)	inactive: 1

No new results follow: 5 of the compounds above.
SMILES	cell-surface Lgr5 expression
O=[N+]([O-])c1cccnc1N/N=C/c1cc(Br)c(Br)o1	inactive: 1.29
COc1cc(C(c2cc3c(cc2O)OCO3)N2CCOCC2)cc(OC)c1OC (configuration not stated)	inactive: 1.5
O=S(=O)(NCc1ccco1)c1cc(Cl)ccc1Cl	inactive: 1.33
Cc1cc(N)nn1Cn1cc(Cl)cn1	inactive: 1.13
COc1cc(/C=N/NC(N)=S)cc(OC)c1	inactive: 1.22

Shown with each value named: two of the compounds above
Nc1ncnc(N2CCCCC2)c1[N+](=O)[O-]
  cell-surface Lgr5 expression: inactive: 0.56
O=C(Nc1nncs1)c1cccs1
  cell-surface Lgr5 expression: inactive: 1.23
